Data from the supplement of paper PMC12823440, “Inhibitors supercharge kinase turnover through native proteolytic circuits” (Nature, 2025).
Counter-ions that a name gives are not always drawn. This is one part of the list. The calls rarely recur for the same compound in another form.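 Kinases, fused to nanoluciferase, were expressed in K562 cells; luminescence was measured every 4 h from 2 to 18 h as percent of control (DMSO = 100%, positive control = 0%). A time point is decreased if signal falls significantly (2 sigma). Hits were called by the authors by a rule that is not shown; the count of time points alone does not decide it.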

The chains behind the UniProt entries cited, without tags or fusion partners. Where a name states a change or a piece, a line headed by the entry shows the natural chain unless it says otherwise.
UniProt P10398: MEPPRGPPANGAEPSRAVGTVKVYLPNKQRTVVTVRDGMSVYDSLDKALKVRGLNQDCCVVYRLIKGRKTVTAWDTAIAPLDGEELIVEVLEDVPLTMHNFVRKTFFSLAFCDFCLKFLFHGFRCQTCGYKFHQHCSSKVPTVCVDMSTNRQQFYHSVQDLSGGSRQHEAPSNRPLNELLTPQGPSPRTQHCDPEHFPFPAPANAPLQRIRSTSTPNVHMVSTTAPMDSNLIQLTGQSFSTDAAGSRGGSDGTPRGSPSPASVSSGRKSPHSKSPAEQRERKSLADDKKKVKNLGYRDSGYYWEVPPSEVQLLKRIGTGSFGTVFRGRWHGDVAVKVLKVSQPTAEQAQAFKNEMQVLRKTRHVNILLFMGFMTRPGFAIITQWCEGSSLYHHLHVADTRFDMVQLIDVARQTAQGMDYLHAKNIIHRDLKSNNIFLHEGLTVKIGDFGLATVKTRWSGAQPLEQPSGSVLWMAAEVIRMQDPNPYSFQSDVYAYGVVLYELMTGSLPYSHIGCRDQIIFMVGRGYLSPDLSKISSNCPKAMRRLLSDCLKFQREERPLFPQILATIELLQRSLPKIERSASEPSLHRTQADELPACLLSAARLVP
UniProt O14965: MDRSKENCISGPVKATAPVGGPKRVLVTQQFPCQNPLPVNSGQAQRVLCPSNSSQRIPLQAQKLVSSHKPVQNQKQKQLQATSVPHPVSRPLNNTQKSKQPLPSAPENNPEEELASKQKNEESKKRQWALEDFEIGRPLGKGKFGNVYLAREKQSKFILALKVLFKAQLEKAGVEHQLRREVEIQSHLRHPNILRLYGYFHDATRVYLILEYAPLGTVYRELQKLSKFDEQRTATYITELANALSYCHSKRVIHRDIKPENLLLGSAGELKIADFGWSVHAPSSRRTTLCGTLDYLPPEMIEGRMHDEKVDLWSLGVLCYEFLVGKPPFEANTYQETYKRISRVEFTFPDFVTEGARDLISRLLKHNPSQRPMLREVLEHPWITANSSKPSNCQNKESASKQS
UniProt Q96GD4, whole entry: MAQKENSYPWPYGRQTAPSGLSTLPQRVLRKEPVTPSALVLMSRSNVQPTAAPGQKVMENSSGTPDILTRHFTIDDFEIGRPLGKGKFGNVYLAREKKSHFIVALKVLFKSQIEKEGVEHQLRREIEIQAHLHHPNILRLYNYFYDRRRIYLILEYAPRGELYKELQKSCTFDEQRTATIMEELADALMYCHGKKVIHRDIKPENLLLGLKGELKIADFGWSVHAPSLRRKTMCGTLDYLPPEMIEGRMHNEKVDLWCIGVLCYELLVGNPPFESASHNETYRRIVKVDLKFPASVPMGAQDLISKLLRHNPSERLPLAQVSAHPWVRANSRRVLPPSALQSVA
UniProt Q9UQB9: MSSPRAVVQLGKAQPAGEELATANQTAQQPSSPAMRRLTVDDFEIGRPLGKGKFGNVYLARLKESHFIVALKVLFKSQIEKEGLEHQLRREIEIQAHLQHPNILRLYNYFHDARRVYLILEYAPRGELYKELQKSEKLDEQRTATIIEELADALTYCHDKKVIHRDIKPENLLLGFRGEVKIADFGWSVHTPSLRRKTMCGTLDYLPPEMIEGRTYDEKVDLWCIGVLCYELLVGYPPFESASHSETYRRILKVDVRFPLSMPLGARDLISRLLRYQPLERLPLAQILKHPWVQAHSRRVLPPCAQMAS
UniProt P51451: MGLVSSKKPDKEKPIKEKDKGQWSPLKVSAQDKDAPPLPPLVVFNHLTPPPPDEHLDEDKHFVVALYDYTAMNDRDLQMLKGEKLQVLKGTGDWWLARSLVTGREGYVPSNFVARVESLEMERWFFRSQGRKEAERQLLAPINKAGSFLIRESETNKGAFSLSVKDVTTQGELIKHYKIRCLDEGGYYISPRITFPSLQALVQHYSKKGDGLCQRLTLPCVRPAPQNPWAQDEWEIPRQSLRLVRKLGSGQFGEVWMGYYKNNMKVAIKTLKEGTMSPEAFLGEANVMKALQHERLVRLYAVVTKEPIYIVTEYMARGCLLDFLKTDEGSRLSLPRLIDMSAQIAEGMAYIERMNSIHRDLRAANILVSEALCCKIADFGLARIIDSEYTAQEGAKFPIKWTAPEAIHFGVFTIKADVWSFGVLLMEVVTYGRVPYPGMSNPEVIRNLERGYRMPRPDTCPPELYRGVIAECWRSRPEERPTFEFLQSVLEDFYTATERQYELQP
UniProt P15056, whole entry, looked up: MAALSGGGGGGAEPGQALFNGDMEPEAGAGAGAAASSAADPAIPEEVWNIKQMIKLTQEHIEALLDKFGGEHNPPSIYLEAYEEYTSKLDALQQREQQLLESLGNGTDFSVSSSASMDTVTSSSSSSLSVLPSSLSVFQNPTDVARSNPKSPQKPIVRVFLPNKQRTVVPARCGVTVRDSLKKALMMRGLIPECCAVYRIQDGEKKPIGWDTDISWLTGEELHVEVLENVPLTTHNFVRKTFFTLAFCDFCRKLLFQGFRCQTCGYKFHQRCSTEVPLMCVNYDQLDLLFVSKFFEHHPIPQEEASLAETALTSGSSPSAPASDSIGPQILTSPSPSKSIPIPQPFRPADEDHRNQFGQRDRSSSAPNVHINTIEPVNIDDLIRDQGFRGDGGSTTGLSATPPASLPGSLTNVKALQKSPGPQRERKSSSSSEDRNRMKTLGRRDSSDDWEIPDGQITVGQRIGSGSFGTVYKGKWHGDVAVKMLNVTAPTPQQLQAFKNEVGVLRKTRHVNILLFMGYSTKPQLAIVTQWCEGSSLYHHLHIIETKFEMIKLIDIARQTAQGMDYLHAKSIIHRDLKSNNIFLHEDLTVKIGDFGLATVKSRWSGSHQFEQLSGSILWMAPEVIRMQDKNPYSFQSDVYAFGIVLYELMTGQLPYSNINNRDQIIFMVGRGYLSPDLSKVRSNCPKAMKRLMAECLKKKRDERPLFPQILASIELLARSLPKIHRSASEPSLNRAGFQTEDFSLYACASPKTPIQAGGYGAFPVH
UniProt Q06187: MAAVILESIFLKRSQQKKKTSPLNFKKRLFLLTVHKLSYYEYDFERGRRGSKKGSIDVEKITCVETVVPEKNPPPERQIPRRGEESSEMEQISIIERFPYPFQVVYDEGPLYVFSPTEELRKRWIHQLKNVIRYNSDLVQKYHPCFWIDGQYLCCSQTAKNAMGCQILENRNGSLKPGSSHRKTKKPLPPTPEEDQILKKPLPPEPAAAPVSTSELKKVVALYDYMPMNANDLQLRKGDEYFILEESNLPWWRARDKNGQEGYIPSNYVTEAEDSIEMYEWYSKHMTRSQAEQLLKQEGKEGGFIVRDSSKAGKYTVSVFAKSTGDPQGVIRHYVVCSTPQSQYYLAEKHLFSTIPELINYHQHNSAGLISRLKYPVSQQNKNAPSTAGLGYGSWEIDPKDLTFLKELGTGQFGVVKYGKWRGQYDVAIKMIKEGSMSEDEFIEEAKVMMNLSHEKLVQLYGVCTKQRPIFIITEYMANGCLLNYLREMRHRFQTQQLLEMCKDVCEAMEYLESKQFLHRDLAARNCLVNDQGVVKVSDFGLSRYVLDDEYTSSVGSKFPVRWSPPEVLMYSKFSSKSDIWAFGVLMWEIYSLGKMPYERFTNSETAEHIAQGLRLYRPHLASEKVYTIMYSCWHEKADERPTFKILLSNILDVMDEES
UniProt Q9UQM7, whole entry: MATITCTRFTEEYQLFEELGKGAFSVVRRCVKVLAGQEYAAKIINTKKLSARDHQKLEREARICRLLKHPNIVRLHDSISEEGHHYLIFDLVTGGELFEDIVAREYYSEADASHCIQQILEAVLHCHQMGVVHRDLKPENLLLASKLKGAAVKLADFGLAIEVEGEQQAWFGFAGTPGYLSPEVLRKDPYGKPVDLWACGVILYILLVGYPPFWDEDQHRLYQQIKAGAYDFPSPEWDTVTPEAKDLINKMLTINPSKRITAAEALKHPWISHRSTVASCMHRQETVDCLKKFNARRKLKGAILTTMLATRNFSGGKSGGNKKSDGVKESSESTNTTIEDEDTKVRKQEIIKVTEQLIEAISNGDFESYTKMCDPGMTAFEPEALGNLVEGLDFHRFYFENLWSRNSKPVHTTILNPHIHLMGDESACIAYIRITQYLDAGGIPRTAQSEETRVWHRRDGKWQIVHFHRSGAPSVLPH
UniProt Q13555: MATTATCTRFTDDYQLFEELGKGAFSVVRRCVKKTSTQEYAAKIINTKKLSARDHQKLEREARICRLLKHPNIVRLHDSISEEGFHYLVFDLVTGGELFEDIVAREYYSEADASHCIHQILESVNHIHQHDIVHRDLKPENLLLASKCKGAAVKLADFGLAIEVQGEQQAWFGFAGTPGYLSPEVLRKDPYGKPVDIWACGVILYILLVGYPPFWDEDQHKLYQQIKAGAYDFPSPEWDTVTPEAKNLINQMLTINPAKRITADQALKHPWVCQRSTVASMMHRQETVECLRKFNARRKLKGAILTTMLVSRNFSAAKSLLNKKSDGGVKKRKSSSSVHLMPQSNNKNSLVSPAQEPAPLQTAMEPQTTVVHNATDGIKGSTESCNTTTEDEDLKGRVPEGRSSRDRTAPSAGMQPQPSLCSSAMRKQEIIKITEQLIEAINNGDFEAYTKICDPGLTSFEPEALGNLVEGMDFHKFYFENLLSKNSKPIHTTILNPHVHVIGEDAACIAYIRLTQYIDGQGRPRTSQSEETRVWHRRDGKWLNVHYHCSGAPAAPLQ
UniProt Q15131: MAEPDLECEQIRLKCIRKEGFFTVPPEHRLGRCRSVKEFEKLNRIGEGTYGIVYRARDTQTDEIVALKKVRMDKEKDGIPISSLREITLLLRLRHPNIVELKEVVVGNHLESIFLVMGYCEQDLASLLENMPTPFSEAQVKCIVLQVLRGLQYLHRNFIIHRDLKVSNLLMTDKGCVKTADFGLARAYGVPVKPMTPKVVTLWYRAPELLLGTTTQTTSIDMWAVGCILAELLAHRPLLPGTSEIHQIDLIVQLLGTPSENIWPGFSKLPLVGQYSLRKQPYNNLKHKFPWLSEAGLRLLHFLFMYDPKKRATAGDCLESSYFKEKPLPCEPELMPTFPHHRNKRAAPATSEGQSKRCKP
UniProt Q00526: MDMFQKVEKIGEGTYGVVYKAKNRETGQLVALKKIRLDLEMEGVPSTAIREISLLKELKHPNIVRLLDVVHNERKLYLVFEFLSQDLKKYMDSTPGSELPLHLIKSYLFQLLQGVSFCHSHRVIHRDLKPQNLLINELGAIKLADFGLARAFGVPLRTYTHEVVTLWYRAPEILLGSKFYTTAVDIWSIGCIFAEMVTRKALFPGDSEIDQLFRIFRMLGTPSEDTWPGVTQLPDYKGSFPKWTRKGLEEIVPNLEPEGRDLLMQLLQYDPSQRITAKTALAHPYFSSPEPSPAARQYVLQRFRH
UniProt P11802: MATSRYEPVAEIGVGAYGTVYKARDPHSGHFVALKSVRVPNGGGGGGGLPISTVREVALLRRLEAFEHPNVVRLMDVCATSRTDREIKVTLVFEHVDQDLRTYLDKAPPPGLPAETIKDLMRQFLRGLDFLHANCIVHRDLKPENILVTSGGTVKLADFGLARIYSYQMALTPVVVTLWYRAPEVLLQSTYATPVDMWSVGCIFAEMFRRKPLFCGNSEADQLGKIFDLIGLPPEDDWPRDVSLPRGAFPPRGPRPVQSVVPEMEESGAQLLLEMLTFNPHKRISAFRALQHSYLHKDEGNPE
UniProt Q00535, whole entry, looked up: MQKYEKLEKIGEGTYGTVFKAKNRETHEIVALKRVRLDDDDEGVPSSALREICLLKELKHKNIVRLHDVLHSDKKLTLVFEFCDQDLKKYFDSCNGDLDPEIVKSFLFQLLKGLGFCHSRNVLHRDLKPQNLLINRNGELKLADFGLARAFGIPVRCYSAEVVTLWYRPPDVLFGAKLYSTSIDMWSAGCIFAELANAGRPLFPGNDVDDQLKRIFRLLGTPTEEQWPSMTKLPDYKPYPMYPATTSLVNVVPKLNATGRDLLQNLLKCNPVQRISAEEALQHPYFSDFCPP
UniProt Q00534, whole entry: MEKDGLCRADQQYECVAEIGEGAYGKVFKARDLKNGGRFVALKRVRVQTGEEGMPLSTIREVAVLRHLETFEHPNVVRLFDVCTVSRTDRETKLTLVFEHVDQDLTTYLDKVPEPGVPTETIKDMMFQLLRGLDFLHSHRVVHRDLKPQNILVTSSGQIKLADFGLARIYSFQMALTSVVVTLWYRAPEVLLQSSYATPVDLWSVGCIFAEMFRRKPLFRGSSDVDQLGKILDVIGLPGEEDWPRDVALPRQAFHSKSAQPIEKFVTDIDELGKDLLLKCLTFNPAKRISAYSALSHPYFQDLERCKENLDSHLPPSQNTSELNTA

Assays:
Experiment in all cases: kinase-Nluc reporter destabilization hit call (1 = scored as downregulated) (binary); higher = compound decreases kinase abundance
Conditions in all cases: K562; 2-18 h
ABL1 = ABL1 (UniProt P00519)
AKT1 = AKT1 (UniProt P31749)
ALK = ALK (UniProt Q9UM73)
ARAF = ARAF (UniProt P10398)
AURKA = AURKA (UniProt O14965)
AURKB = AURKB (UniProt Q96GD4)
AURKC = AURKC (UniProt Q9UQB9)
BLK = BLK (UniProt P51451)
BMX = BMX (UniProt P51813)
BRAF = BRAF (UniProt P15056)
BRAF_V600E = system: BRAF_V600E
BTK = BTK (UniProt Q06187)
CAMK2A = CAMK2A (UniProt Q9UQM7)
CAMK2G = CAMK2G (UniProt Q13555)
CDK10 = CDK10 (UniProt Q15131)
CDK2 = CDK2 (UniProt P24941)
CDK3 = CDK3 (UniProt Q00526)
CDK4 = CDK4 (UniProt P11802)
CDK5 = CDK5 (UniProt Q00535)
CDK6 = CDK6 (UniProt Q00534)

Measured: kinase-Nluc reporter destabilization hit call

CN1CCN(CCCNc2ncc(Cl)c(-c3cc4c(C(=O)NC5CC5)cccc4s3)n2)CC1 (10 µM)
inactive: ABL1 = 0 | AKT1 = 0 | ALK 0 | ARAF 0 | AURKA 0 | AURKB 0 | AURKC 0 | BLK 0 | BMX 0 | BRAF 0 | BRAF_V600E 0 | BTK 0 | CAMK2A 0 | CAMK2G 0 | CDK10 = 0 | CDK2 = 0 | CDK3 = 0 | CDK4 = 0 | CDK5 = 0 | CDK6 = 0

O=C(O)c1ccccc1Nc1cccc(C(F)(F)F)c1 [Flufenamic acid] (10 µM)
inactive: ABL1 = 0 | AKT1 = 0 | ALK 0 | ARAF 0 | AURKA 0 | AURKB 0 | AURKC 0 | BLK 0 | BMX 0 | BRAF 0 | BRAF_V600E 0 | BTK 0 | CAMK2A 0 | CAMK2G 0 | CDK10 = 0 | CDK2 = 0 | CDK3 = 0 | CDK4 = 0 | CDK5 = 0 | CDK6 = 0

NCCCCCCNS(=O)(=O)c1cccc2c(Cl)cccc12 [W-7 (hydrochloride)] (10 µM)
inactive: ABL1 = 0 | AKT1 = 0 | ALK 0 | ARAF 0 | AURKA 0 | AURKB 0 | AURKC 0 | BLK 0 | BMX 0 | BRAF 0 | BRAF_V600E 0 | BTK 0 | CAMK2A 0 | CAMK2G 0 | CDK10 = 0 | CDK2 = 0 | CDK3 = 0 | CDK4 = 0 | CDK5 = 0 | CDK6 = 0

O=C(CO)N1CCC(c2n[nH]c(-c3ccc(Cl)cc3)c2-c2ccncn2)CC1 (10 µM)
inactive: ABL1 = 0 | AKT1 = 0 | ALK 0 | ARAF 0 | AURKA 0 | AURKB 0 | AURKC 0 | BLK 0 | BMX 0 | BRAF 0 | BRAF_V600E 0 | BTK 0 | CAMK2A 0 | CAMK2G 0 | CDK10 = 0 | CDK2 = 0 | CDK3 = 0 | CDK4 = 0 | CDK5 = 0 | CDK6 = 0

O=C(c1ccc(Nc2nccc(-c3cc4ccccc4s3)n2)cc1)N1CCC(N2CCCC2)CC1 (2.5 µM)
inactive: ABL1 = 0 | AKT1 = 0 | ALK 0 | ARAF 0 | AURKA 0 | AURKB 0 | AURKC 0 | BLK 0 | BMX 0 | BRAF 0 | BRAF_V600E 0 | BTK 0 | CAMK2A 0 | CAMK2G 0 | CDK10 = 0 | CDK2 = 0 | CDK3 = 0 | CDK4 = 0 | CDK5 = 0 | CDK6 = 0

O=C(Nc1cccc(-c2nncn2C2CC2)c1)c1cc(-n2cnc(C3CC3)c2)ccn1 (10 µM)
inactive: ABL1 = 0 | AKT1 = 0 | ALK 0 | ARAF 0 | AURKA 0 | AURKB 0 | AURKC 0 | BLK 0 | BMX 0 | BRAF 0 | BRAF_V600E 0 | BTK 0 | CAMK2A 0 | CAMK2G 0 | CDK10 = 0 | CDK2 = 0 | CDK3 = 0 | CDK4 = 0 | CDK5 = 0 | CDK6 = 0

COc1cnccc1Nc1nc(-c2nn(Cc3c(F)cc(OCCO)cc3F)c3ccccc23)ncc1OC (10 µM)
inactive: ABL1 = 0 | AKT1 = 0 | ALK 0 | ARAF 0 | AURKA 0 | AURKB 0 | AURKC 0 | BLK 0 | BMX 0 | BRAF 0 | BRAF_V600E 0 | BTK 0 | CAMK2A 0 | CAMK2G 0 | CDK10 = 0 | CDK2 = 0 | CDK3 = 0 | CDK4 = 0 | CDK5 = 0 | CDK6 = 0

CCN(C)C(=O)c1ccc2c(C(=Nc3ccc(CN4CCCCC4)cc3)c3ccccc3)c(O)[nH]c2c1 (2.5 µM)
inactive: ABL1 = 0 | AKT1 = 0 | ALK 0 | ARAF 0 | AURKA 0 | AURKB 0 | AURKC 0 | BLK 0 | BMX 0 | BRAF 0 | BRAF_V600E 0 | BTK 0 | CAMK2A 0 | CAMK2G 0 | CDK10 = 0 | CDK2 = 0 | CDK3 = 0 | CDK4 = 0 | CDK5 = 0 | CDK6 = 0

O=C(O)c1ccc(-c2c[nH]c3ncc(-c4ccccc4)cc23)cc1C1CCCC1 (2.5 µM)
inactive: ABL1 = 0 | AKT1 = 0 | ALK 0 | ARAF 0 | AURKA 0 | AURKB 0 | AURKC 0 | BLK 0 | BMX 0 | BRAF 0 | BRAF_V600E 0 | BTK 0 | CAMK2A 0 | CAMK2G 0 | CDK10 = 0 | CDK2 = 0 | CDK3 = 0 | CDK4 = 0 | CDK5 = 0 | CDK6 = 0

[O-][n+]1cccc(-c2nc3c(Cl)cccc3cc2[C@@H](Nc2ncnc3cccnc23)C(F)(F)F)c1 [Seletalisib] (10 µM)
inactive: ABL1 = 0 | AKT1 = 0 | ALK 0 | ARAF 0 | AURKA 0 | AURKB 0 | AURKC 0 | BLK 0 | BMX 0 | BRAF 0 | BRAF_V600E 0 | BTK 0 | CAMK2A 0 | CAMK2G 0 | CDK10 = 0 | CDK2 = 0 | CDK3 = 0 | CDK4 = 0 | CDK5 = 0 | CDK6 = 0

C[C@@H]1O[C@@H](OC[C@H]2O[C@@H](Oc3cc(O)c4c(c3)O[C@H](c3ccc(O)cc3)CC4=O)[C@H](O)[C@@H](O)[C@@H]2O)[C@H](O)[C@H](O)[C@H]1O [Narirutin] (10 µM)
inactive: ABL1 = 0 | AKT1 = 0 | ALK 0 | ARAF 0 | AURKA 0 | AURKB 0 | AURKC 0 | BLK 0 | BMX 0 | BRAF 0 | BRAF_V600E 0 | BTK 0 | CAMK2A 0 | CAMK2G 0 | CDK10 = 0 | CDK2 = 0 | CDK3 = 0 | CDK4 = 0 | CDK5 = 0 | CDK6 = 0

CC[C@H](Nc1ncnc2[nH]cnc12)c1oc2ccccc2c(=O)c1-c1cccc(F)c1 [Tenalisib] (10 µM)
inactive: ABL1 = 0 | AKT1 = 0 | ALK 0 | ARAF 0 | AURKA 0 | AURKB 0 | AURKC 0 | BLK 0 | BMX 0 | BRAF 0 | BRAF_V600E 0 | BTK 0 | CAMK2A 0 | CAMK2G 0 | CDK10 = 0 | CDK2 = 0 | CDK3 = 0 | CDK4 = 0 | CDK5 = 0 | CDK6 = 0

Nc1cc(C(F)F)c(-c2nc(N3C4CCC3COC4)nc(N3C4CCC3COC4)n2)cn1 (2.5 µM)
inactive: ABL1 = 0 | AKT1 = 0 | ALK 0 | ARAF 0 | AURKA 0 | AURKB 0 | AURKC 0 | BLK 0 | BMX 0 | BRAF 0 | BRAF_V600E 0 | BTK 0 | CAMK2A 0 | CAMK2G 0 | CDK10 = 0 | CDK2 = 0 | CDK3 = 0 | CDK4 = 0 | CDK5 = 0 | CDK6 = 0

CC(C)(C)c1cc(C(c2cc3c(cc2O)OCO3)N2CCOCC2)cc(C(C)(C)C)c1O (stereo not given) (2.5 µM)
inactive: ABL1 = 0 | AKT1 = 0 | ALK 0 | ARAF 0 | AURKA 0 | AURKB 0 | AURKC 0 | BLK 0 | BMX 0 | BRAF 0 | BRAF_V600E 0 | BTK 0 | CAMK2A 0 | CAMK2G 0 | CDK10 = 0 | CDK2 = 0 | CDK3 = 0 | CDK4 = 0 | CDK5 = 0 | CDK6 = 0

CC(C)N(C)c1nc2cc(C(=O)O)ccc2nc1-c1ccc(F)cc1 (10 µM)
inactive: ABL1 = 0 | AKT1 = 0 | ALK 0 | ARAF 0 | AURKA 0 | AURKB 0 | AURKC 0 | BLK 0 | BMX 0 | BRAF 0 | BRAF_V600E 0 | BTK 0 | CAMK2A 0 | CAMK2G 0 | CDK10 = 0 | CDK2 = 0 | CDK3 = 0 | CDK4 = 0 | CDK5 = 0 | CDK6 = 0

N#Cc1ccc(-c2c(-c3ncn[nH]3)sc(N3CCOCC3)c2C#N)c(F)c1 (10 µM)
inactive: ABL1 = 0 | AKT1 = 0 | ALK 0 | ARAF 0 | AURKA 0 | AURKB 0 | AURKC 0 | BLK 0 | BMX 0 | BRAF 0 | BRAF_V600E 0 | BTK 0 | CAMK2A 0 | CAMK2G 0 | CDK10 = 0 | CDK2 = 0 | CDK3 = 0 | CDK4 = 0 | CDK5 = 0 | CDK6 = 0

Cn1cc(-c2ccc(F)c(C(F)(F)F)c2)nc1C1CCN(c2ncnc3[nH]ncc23)CC1 (10 µM)
inactive: ABL1 = 0 | AKT1 = 0 | ALK 0 | ARAF 0 | AURKA 0 | AURKB 0 | AURKC 0 | BLK 0 | BMX 0 | BRAF 0 | BRAF_V600E 0 | BTK 0 | CAMK2A 0 | CAMK2G 0 | CDK10 = 0 | CDK2 = 0 | CDK3 = 0 | CDK4 = 0 | CDK5 = 0 | CDK6 = 0

Nc1cc(C(F)(F)F)c(-c2nc(N3CCOCC3)nc(N3CCOCC3)n2)cn1 [Bimiralisib] (10 µM)
inactive: ABL1 = 0 | AKT1 = 0 | ALK 0 | ARAF 0 | AURKA 0 | AURKB 0 | AURKC 0 | BLK 0 | BMX 0 | BRAF 0 | BRAF_V600E 0 | BTK 0 | CAMK2A 0 | CAMK2G 0 | CDK10 = 0 | CDK2 = 0 | CDK3 = 0 | CDK4 = 0 | CDK5 = 0 | CDK6 = 0

Reprinted from the results shown (two entries):
CC(C)(C)c1cc(C(c2cc3c(cc2O)OCO3)N2CCOCC2)cc(C(C)(C)C)c1O (stereo not given) (2.5 µM)
inactive: ABL1 = 0 | AKT1 = 0 | ALK 0 | ARAF 0 | AURKA 0 | AURKB 0 | AURKC 0 | BLK 0 | BMX 0 | BRAF 0 | BRAF_V600E 0 | BTK 0 | CAMK2A 0 | CAMK2G 0 | CDK10 = 0 | CDK2 = 0 | CDK3 = 0 | CDK4 = 0 | CDK5 = 0 | CDK6 = 0

CC(C)N(C)c1nc2cc(C(=O)O)ccc2nc1-c1ccc(F)cc1 (10 µM)
inactive: ABL1 = 0 | AKT1 = 0 | ALK 0 | ARAF 0 | AURKA 0 | AURKB 0 | AURKC 0 | BLK 0 | BMX 0 | BRAF 0 | BRAF_V600E 0 | BTK 0 | CAMK2A 0 | CAMK2G 0 | CDK10 = 0 | CDK2 = 0 | CDK3 = 0 | CDK4 = 0 | CDK5 = 0 | CDK6 = 0
